Source: PMC2386257

Key:
Test in all cases: two-hybrid; systematic array-based yeast two-hybrid screen of the T. pallidum proteome; baits in pAS1-loxP or pLP-GBKT7Amp against arrayed preys in pLP-GADT7
[1] = molecular target: T1, (anti-) termination protein NusA (Treponema pallidum) (UniProt O83862)
T1 sequence: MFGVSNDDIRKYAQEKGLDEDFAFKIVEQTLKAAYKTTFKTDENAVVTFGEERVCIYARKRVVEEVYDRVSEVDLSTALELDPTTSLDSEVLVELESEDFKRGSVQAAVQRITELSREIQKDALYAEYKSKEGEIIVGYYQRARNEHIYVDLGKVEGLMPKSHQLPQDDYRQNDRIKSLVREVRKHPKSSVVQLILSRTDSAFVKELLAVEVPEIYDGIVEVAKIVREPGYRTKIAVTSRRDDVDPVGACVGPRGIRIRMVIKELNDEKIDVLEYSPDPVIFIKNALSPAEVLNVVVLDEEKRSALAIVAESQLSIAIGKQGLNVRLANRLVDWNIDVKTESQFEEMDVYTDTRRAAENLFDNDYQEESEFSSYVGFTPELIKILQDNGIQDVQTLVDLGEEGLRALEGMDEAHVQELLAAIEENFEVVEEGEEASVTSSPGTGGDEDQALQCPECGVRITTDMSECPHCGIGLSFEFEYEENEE

[2] = molecular target: T2, replication helicase DnaB (Treponema pallidum) (UniProt O83097)
T2 sequence: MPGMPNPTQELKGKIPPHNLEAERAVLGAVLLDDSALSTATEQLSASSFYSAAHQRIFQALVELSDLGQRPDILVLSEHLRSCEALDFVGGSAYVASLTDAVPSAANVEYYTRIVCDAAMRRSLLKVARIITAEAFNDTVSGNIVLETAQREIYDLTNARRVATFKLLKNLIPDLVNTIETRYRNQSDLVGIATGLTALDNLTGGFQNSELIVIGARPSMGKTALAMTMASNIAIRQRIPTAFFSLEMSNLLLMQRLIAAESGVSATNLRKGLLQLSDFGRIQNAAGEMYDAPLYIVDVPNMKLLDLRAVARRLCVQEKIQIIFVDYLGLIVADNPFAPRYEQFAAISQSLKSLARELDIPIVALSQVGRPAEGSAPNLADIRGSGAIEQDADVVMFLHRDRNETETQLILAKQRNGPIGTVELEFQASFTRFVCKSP

[3] = molecular target: T3, recX (Treponema pallidum) (UniProt B2S4R0)
T3 sequence: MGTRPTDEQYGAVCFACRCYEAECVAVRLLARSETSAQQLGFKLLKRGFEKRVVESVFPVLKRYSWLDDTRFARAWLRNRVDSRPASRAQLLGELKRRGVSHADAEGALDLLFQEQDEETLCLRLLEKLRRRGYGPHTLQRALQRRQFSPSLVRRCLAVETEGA

[4] = molecular target: T4, DNA primase (DnaG) (Treponema pallidum) (UniProt O83505)
T4 sequence: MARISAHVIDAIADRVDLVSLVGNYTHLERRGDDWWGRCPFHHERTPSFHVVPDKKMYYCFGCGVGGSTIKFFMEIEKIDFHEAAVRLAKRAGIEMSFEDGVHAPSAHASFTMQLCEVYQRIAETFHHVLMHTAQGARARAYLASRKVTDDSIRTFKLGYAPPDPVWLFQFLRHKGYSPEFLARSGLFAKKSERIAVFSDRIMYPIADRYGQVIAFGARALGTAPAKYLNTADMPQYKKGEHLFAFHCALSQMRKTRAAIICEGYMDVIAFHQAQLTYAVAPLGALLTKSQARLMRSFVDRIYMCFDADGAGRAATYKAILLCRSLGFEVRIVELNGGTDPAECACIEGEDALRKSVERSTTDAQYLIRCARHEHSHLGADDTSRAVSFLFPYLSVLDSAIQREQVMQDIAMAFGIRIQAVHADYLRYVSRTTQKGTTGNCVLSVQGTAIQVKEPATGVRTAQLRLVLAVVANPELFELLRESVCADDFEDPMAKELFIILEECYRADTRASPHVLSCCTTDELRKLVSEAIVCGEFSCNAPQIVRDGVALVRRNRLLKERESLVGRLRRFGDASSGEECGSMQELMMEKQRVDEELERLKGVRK

[5] = molecular target: TP0965 (Treponema pallidum) (UniProt O83931)
[6] = molecular target: exonuclease for dsDNA (Treponema pallidum)
[7] = molecular target: DNA repair helicase TP0380 (Treponema pallidum) (UniProt O83395)

RNA helicase HrpA (from UniProt O83538)
binding [1]: binds

TP0050 (from UniProt O83089)
binding [2]: binds

TP0443 (from UniProt O83457)
binding [3]: binds

TP0496 (from UniProt O83509)
binding [4]: binds

TP0963 (from UniProt O83929)
binding [5]: binds

B1: TP0320 (protein, UniProt O83340 1-51)
chain: MPPVPARGRPSSSSDFCLYGMAVVNGFCVQDIPYGSRVVLPGRMRSSSAGA
binding [6]: binds

B2: TP0183 (protein, UniProt O83213 1-281)
chain: MKKGVRSSRLLILFVLFAHAVHAAPRVGVYRLEVSGVPAHTETTINDALFSFIRELRGYHVVDCREQAVPHRFPEKGNLDYIFCGAMDLTPEGIRLAVALKGKDHNATRLLSKTYETAARILLDSRHLVRDVFDRSVPLTGNQTETSSMRHTRAGEESVSSLDALAGSWHSTEEGERIVIVSEGRGIAVLRSGLSVPLKLKISDGVLVVSQKGAVNARQFSHFPPEIAQKLAQEARPLQWRFPKISGNNRLSGVRTAPVVRGAGHTASVEYEEVPEEWVRN
binding [7]: binds

No constants are given. Whether binding was seen depends on the method and setting. A result given as binding can be weak or reduced; the word gives no strength.
